Data: PubChem BioAssay AID1347075 (National Center for Advancing Translational Sciences (NCATS), 2019)
Hit rate of the full screen: of about 400,000 compounds, about 5,500 (1.4%) were called active. The shares of active, inactive and inconclusive entries below differ from those in the screen. Calls come from the whole dose curve; as a rule, active = well fitted cell-killing curve with a large enough effect; inconclusive = small, poorly fitted or top-dose-only effect, or effect the other way; inactive = flat fitted curve, though single readings scatter. A potency beside an inconclusive call is a rough fit, not a confirmed value.

Assay: qHTS assay for MDR1-selective chemotherapeutics: Primary screen using the parental adenocarcinoma cell KB-3-1; note: nearly all actives have a fitted effect of over 60% in size
Conditions: KB-3-1 viability, CellTiter-Glo ATP luminescence, 72 h; activity change, negative = cytotoxic: at 46.1 µM (top of the series)
Method in brief: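 Here the drug-naive KB-3-1 line serves as comparator for MDR sub-line selectivity; cells received compound titrations, 72 h at 37 °C, then CellTiter-Glo readout.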
% is set by controls: 0 for no effect and ±100 for the full control effect; potency is the fitted concentration of half-maximal effect.

| Structure (SMILES) | Potency | activity change, negative = cytotoxic |
| --- | --- | --- |
| CC(C)C[C@H]1CNC(=S)N1CC1CCCN1C[C@H](CC(C)C)N1C[C@H](Cc2ccc(O)cc2)N(CC2CCCCC2)C1=S (stereo partly specified) | inconclusive: 20.6 µM [cytotoxic, single point] |  |
| Cc1ccc(S(=O)(=O)/N=C(/c2ccccc2)N2CCOCC2)cc1 | inconclusive: 29.1 µM [rising, single point] |  |
| COc1ccc(C(C)(O)c2nc(-c3ccc(F)cc3OC)cs2)cc1 (stereo unspecified) | inconclusive: 29.1 µM [cytotoxic, single point] |  |
| Oc1ccccc1-c1nnc(SCCN2CCOCC2)n1Cc1ccccc1 | inconclusive: 23.1 µM [cytotoxic, single point] |  |
| Cc1cccc(N2CCN(C(=O)CN3C(=O)COc4ccc(S(=O)(=O)N5CCC(C)CC5)cc43)CC2)c1C |  | inactive: 2.15% |
| CCOc1ccccc1C(c1c(O)nc(SC)[nH]c1=O)c1c(O)nc(SC)[nH]c1=O | inconclusive: 29.1 µM [rising, single point] |  |
| COc1ccc(N2C(=O)c3ccccc3S2(=O)=O)cc1 | inconclusive: 29.1 µM [rising, single point] |  |
| COc1ccc(Cc2nnc(NC(=O)c3cc(OC)c(OC)c(OC)c3)s2)cc1 | inconclusive: 29.1 µM [cytotoxic, single point] |  |
| CCOC(=O)CCCn1nc(C)n2c(cc3sccc32)c1=O |  | inactive: -4.28% |
| COC(=O)c1ccccc1-c1c2ccc(=N)cc-2oc2cc(N)ccc12 | active: 1.3 µM |  |
| Cc1nc2cccc(C(=O)NC3CCCCC3)c2o1 | inconclusive: 29.1 µM [rising, partial curve, poor fit] |  |
| CCCNC(=O)C1(C)CCCN(C/C=C/c2ccccc2)C1 (stereo unspecified) |  | inactive: 0% |
| C/C(N)=C(/C#N)C(=O)CSc1nc2ccccc2c(=O)n1Cc1ccc(C)cc1 | inconclusive: 29.1 µM [cytotoxic, single point] |  |
| CCOC(=O)COc1cccc2c(=O)n(CC(=O)NCc3ccc(F)cc3)ccc12 | active: 0.58 µM |  |
| O=C(Nc1ccc(Br)cc1F)c1sccc1-n1cccc1 |  | inactive: -0.661% |
| O=C(COC(=O)c1ccccc1)Nc1ncc([N+](=O)[O-])s1 |  | inactive: -15.9% |
| O=C(/C=C/c1ccccc1Cl)Nc1cccc(S(=O)(=O)NC2=NCCCCC2)c1 | inconclusive: 20.6 µM [cytotoxic, single point] |  |
| CC1CCc2sc(C(=O)NN=C3CCCC3)cc2C1 (stereo unspecified) | inconclusive: 23.1 µM [cytotoxic, single point] |  |
| O=C(NC(Nc1ncc(S(=O)(=O)c2ccc([N+](=O)[O-])cc2)s1)(C(F)(F)F)C(F)(F)F)c1ccc(Cl)cc1 | active: 20.6 µM |  |
| CCOc1ccc(Oc2c(/C=N/NC(=O)C3CC3)c(C)nn2-c2ccccc2)cc1 | inconclusive: 11.6 µM [cytotoxic, partial curve] |  |
| COc1ccc(C(CNC(=O)c2ccc(OCc3c(C)noc3C)cc2)N2CCCC2)cc1 (stereo unspecified) | inconclusive: 10.3 µM [cytotoxic, partial curve] |  |
| Cc1ccc(-n2nc3c(N4CCC(C(=O)NC5CCC(C)CC5)CC4)nnc(C)c3c2C)cc1 (stereo unspecified) |  | inactive: -0.956% |

| Structure (SMILES) | Potency | activity change, negative = cytotoxic |
| --- | --- | --- |
| O=C(N/N=C/c1cccc(Br)c1)c1ccc(N2CCCC2=O)cc1 | inconclusive: 29.1 µM [cytotoxic, single point] |  |
| C=CCn1c(=O)c(C(=O)Nc2ccc(C)cn2)c(O)c2ccccc21 | inconclusive: 23.1 µM [cytotoxic, partial curve, poor fit] |  |
| Cc1oc(-c2ccccc2Cl)nc1CSCC(=O)N1CCCC1 | inconclusive: 5.17 µM [cytotoxic, partial curve, poor fit] |  |
| Cc1ccc(S(=O)(=O)Cc2ccccc2Cl)cc1 | inconclusive: 29.1 µM [cytotoxic, single point] |  |
| Cc1ccc(C(=O)c2cn(Cc3ccccc3F)c3cc4c(cc3c2=O)OCCO4)cc1 |  | inactive: 2.56% |
| Cc1ccc(-n2c(C)cc(C3=NNC(=NC4CC4)SC3)c2C)cc1C | inconclusive: 18.4 µM [cytotoxic, partial curve, poor fit] |  |
| COc1ccc(C(=O)NC2CCCCCCC2)cc1OC | inconclusive: 23.1 µM [cytotoxic, single point] |  |
| CC(=O)c1ccccc1OCC(O)CN1CCN(C(c2ccccc2)c2ccccc2)CC1 (stereo unspecified) | inconclusive: 29.1 µM [cytotoxic, single point] |  |
| O=C(Nc1ccc(C(=O)N2CCCCC2)cc1)C1=CSCCO1 | inconclusive: 14.6 µM [cytotoxic, partial curve] |  |
| Cc1ccc(NC(=O)c2ccccc2[N+](=O)[O-])nc1 | inconclusive: 13 µM [cytotoxic, single point] |  |
| Cc1ccsc1-c1nc(-c2ccccc2)c(-c2ccccc2)[nH]1 | inconclusive: 23.1 µM [cytotoxic, single point] |  |
| COc1ccccc1CCNC(=O)C(=O)Nc1cc2c3c(c1)CC(=O)N3CCC2 | inconclusive: 29.1 µM [rising, single point] |  |
| CC(C)c1ccc(CNc2c([N+](=O)[O-])c(=O)oc3ccccc23)cc1 | inconclusive: 29.1 µM [cytotoxic, single point] |  |
| CCOc1ccccc1NC(=O)C1CCC(CNS(=O)(=O)c2ccc3c(c2)CCCC(=O)N3)CC1 (stereo unspecified) | inconclusive: 29.1 µM [cytotoxic, single point] |  |
| COCCCNc1nc2c(-c3cccc(C)c3)nnn2c2ccccc12 |  | inactive: 2.72% |
| Cc1ccc(C)n1-c1ccc(-c2nnc3n2CCCCC3)s1 | inconclusive: 23.1 µM [cytotoxic, single point] |  |
| Cc1ccc(Cl)cc1N1CCN(CCCNC(=O)Cn2ncc3c([nH]c4ccccc43)c2=O)CC1 |  | inactive: 7.09% |
| COC(=O)c1cnc(Oc2ccc(NC(=O)NC(=O)c3c(F)cccc3Cl)cc2)cc1C(F)(F)F | inconclusive: 3.66 µM [cytotoxic, full curve, poor fit] |  |
| Cc1cccc2sc(NC(=O)C3CCN(S(=O)(=O)c4cc([N+](=O)[O-])ccc4Cl)CC3)nc12 | inconclusive: 25.9 µM [cytotoxic, partial curve, poor fit] |  |
| COc1ccc(Nc2ncnc3c2cnn3Cc2ccccc2)cc1OC |  | inactive: -12.1% |
| CC1CCc2c(sc(NC(=O)CSc3nnc(-c4ccccc4)o3)c2C#N)C1 (stereo unspecified) |  | inactive: 11.4% |
| CCOC(=O)c1c(NC(=O)CN2CCCCC2)sc2c1CCN(C(=O)OCC)C2 | inconclusive: 16.4 µM [cytotoxic, partial curve, poor fit] |  |

Five compounds out of the list, arranged by SMILES length, ascending:

| Structure (SMILES) | Potency | activity change, negative = cytotoxic |
| --- | --- | --- |
| CCOC(=O)CCCn1nc(C)n2c(cc3sccc32)c1=O |  | inactive: -4.28% |
| COCCCNc1nc2c(-c3cccc(C)c3)nnn2c2ccccc12 |  | inactive: 2.72% |
| C=CCn1c(=O)c(C(=O)Nc2ccc(C)cn2)c(O)c2ccccc21 | inconclusive: 23.1 µM [cytotoxic, partial curve, poor fit] |  |
| CCOC(=O)COc1cccc2c(=O)n(CC(=O)NCc3ccc(F)cc3)ccc12 | active: 0.58 µM |  |
| COc1ccc(C(CNC(=O)c2ccc(OCc3c(C)noc3C)cc2)N2CCCC2)cc1 (stereo unspecified) | inconclusive: 10.3 µM [cytotoxic, partial curve] |  |

Following part.

| Structure (SMILES) | Potency | activity change, negative = cytotoxic |
| --- | --- | --- |
| Cc1ccc(OCc2cc(C(=O)N(C)Cc3cnn(-c4ccccc4C)c3)no2)cn1 | active: 18.4 µM |  |
| Cc1cccc(NC(=O)Cn2c(=O)n(Cc3ccccc3)c(=O)c3sc4ccccc4c32)c1 |  | inactive: -14.3% |
| COCCn1c(=N)c(S(=O)(=O)c2ccc(F)cc2)cc2c(=O)n3ccccc3nc21 | inconclusive: 23.1 µM [rising, single point] |  |
| CCC(=O)Nc1nc(C)c(-c2csc(Nc3cccc(O)c3)n2)s1 | inconclusive: 4.11 µM [cytotoxic, full curve, poor fit] |  |
| COc1ccc(S(=O)(=O)c2c(Nc3c(C)cccc3C)sc(C(=O)c3ccc(F)cc3)c2N)cc1 | active: 5.8 µM |  |
| COC(=O)COc1ccc2oc(=O)cc(-c3cc4cccc(OC)c4o3)c2c1 |  | inactive: -8.52% |
| O=S1(=O)CCN(Cc2ccncc2)CC1 | inconclusive: 23.1 µM [rising, single point] |  |
| COc1cccc(C(=O)Nc2cc(C)on2)c1OC | inconclusive: 20.6 µM [rising, single point] |  |
| COC(=O)[C@@]12C[C@@H](CC(=O)NCc3cccs3)C(=O)N(Cc3ccccc3)C1=CCC(C)(C)C2 |  | inactive: -2.12% |
| C#CCOCCOCCOCCNc1nc(N2CCN(C(=O)CCCCCCCCCCNC(=O)[C@H]([C@@H](C)CC)n3cc(CCCCN=C(N)N)nn3)CC2)nc(N2CCN(C(=O)CCCCCCCCCCNC(=O)[C@@H]([C@H](C)O)n3cc(C)nn3)CC2)n1 | inconclusive: 18.4 µM [cytotoxic, partial curve, poor fit] |  |
| Cc1nn2c(N3CCOCC3)c3c(nc2c1-c1ccccc1)CCCC3 | inconclusive: 29.1 µM [cytotoxic, single point] |  |
| NS(=O)(=O)c1ccc(CCNc2nn3c(-c4ccc(F)c(Cl)c4)cnc3s2)cc1 |  | inactive: -13% |
| COc1ccc(Cn2nnnc2C(c2ccccn2)N2CCN(c3cc(Cl)ccc3C)CC2)cc1 (stereo unspecified) | inconclusive: 29.1 µM [rising, single point] |  |
| CCc1sc(NC(=O)CN2CCC(C(N)=O)CC2)nc1-c1ccccc1 |  | inactive: 2.59% |
| CC1CCN(C(=O)CSc2nc3ccccc3c(=O)n2Cc2ccc3c(c2)OCO3)CC1 | inconclusive: 29.1 µM [cytotoxic, single point] |  |
| CCn1c(SCC(=O)Nc2ccc3c(c2)OCCO3)nnc1-c1ccccn1 |  | inactive: 8.28% |
| COc1cc(Cl)c(C)cc1NCC(=O)Nc1cccc(S(=O)(=O)N2CCCC2)c1 | inconclusive: 20.6 µM [cytotoxic, partial curve, poor fit] |  |
| O=C(O/N=C/C1=C(Cl)c2ccccc2CC1)c1ccc(F)cc1 | inconclusive: 32.6 µM [cytotoxic, single point] |  |
| CNc1nccc(-c2ccc(Cl)cc2)c1C#N | inconclusive: 10.3 µM [cytotoxic, partial curve, poor fit] |  |
| CCCc1c(C)nc(N2CCN(c3ccccc3OC)CC2)[nH]c1=O | inconclusive: 29.1 µM [cytotoxic, single point] |  |
| O=C(C[n+]1cccc(Br)c1)c1cccs1 | inconclusive: 29.1 µM [rising, single point] |  |
| COc1ccc(Br)cc1CNC(=O)c1ccc2c(c1)N(C)CCS2 |  | inconclusive: 0.418% |
